In PubChem BioAssay AID2685 (National Center for Advancing Translational Sciences (NCATS), 2010):
Some of the results follow. These are further read-outs of the screen, such as a control signal, another cell line or another target. No call is given for them. The list favours compounds with an active or inconclusive main result. The note in brackets gives the kind of curve behind each potency; many fits are weak.

Experiment: qHTS Assay for Lipid Storage Modulators in Drosophila S3 Cells;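 as to cell number change: cells counted by Cell Tracker Red CMTPX staining in the red channel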
Details: BODIPY lipid droplet fluorescence, 18-24 h; for cell number change: measured here: cell count max response, cells fed with added oleic acid
Procedure, shortened: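 Drosophila S3 cells loaded with oleic acid (400 uM, as added) and compounds at several concentrations; lipid droplets imaged by 488-nm laser-scanning cytometry, 500–530 nm intensity and object ratio to cell channel. Percent activity normalized to 20 uM Triacsin C.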

[1] = measured here: lipid fluorescence (Fed channel) AC50, cells fed with added oleic acid
[2] = measured here: cell number channel AC50, cells fed with added oleic acid

Compound	cell number change	AC50 [1]	AC50 [2]
CCN(CC)CCCNC(=O)c1nn2c(C(F)(F)F)cc(-c3ccccc3)nc2c1Cl	-5.07%	29.1 µM [falling, single point]	–
COc1ccccc1CNC(=O)CN1C(=O)COc2ccc(S(=O)(=O)NC3CCCC3)cc21	-0.494%	–	0.00517 µM [rising, full curve, poor fit]
COc1cc(C(=O)OCC(=O)c2cc(C)n(C)c2C)cc(OC)c1OC	-6.57%	29.1 µM [rising, single point]	–
O=C(CNC(=O)c1cc2c(s1)CCC2)Nc1ccccc1Br	34.7%	–	29.1 µM [rising, single point]
COc1cccc(OCCOc2ccc(/C=C3/SC(=S)NC3=O)cc2)c1	–	2.91 µM [rising, single point]	–
CC(=O)Nc1ccc(C(=O)COC(=O)c2cccs2)c(F)c1	-14%	0.116 µM [falling, full curve, poor fit]	–
CC(=O)N1CCN(C2=Nc3cccc4cccc2c34)CC1	25.6%	2.06 µM [rising, full curve]	3.66 µM [rising, partial curve, poor fit]
Cc1cccc(OCC(=O)Nc2cc(NC(=O)COc3cccc(C)c3)cc(C(=O)O)c2)c1	2.38%	0.116 µM [rising, full curve, poor fit]	–
COc1ccc(CCNC(=O)Cc2cccc(C(F)(F)F)c2)cc1OC	23.4%	–	–
CCn1c(SCC(=O)Nc2ccc(C(C)=O)cc2)nc2nc3c(cc2c1=O)CCCC3	-153%	–	23.1 µM [falling, single point]
CCC(=O)N/C(=N/c1nc(C)cc(C)n1)Nc1ccccc1	5.34%	0.13 µM [rising, full curve, poor fit]	–
Cn1c(SCC(=O)c2c(N)n(C)c(=O)n(C)c2=O)nnc1-c1ccccc1F	39.9%	18.4 µM [rising, partial curve, poor fit]	11.6 µM [rising, partial curve, poor fit]
CC(=O)c1ccc(S(=O)(=O)NCCC(=O)NC(C)c2ccncc2)cc1 (centres undefined)	37.2%	0.103 µM [rising, full curve, poor fit]	2.91 µM [falling, single point]
O=C(c1cc2ccccc2oc1=O)N(Cc1cccs1)CC1CCCO1 (centres undefined)	-7.75%	0.731 µM [falling, single point]	–
Cc1c(NC(=O)CSc2nnnn2-c2ccc(C(=O)O)cc2)c(=O)n(-c2ccccc2)n1C	21.2%	0.146 µM [rising, full curve, poor fit]	–
CSCCC1COC(c2cccs2)=N1 (centres undefined)	-22.5%	14.6 µM [falling, partial curve, poor fit]	–
CCOC(=O)Cc1nnc(NC(=O)c2ccccc2OC)s1	-19.3%	29.1 µM [falling, single point]	–
Cc1ccc(NC(=O)CC2S/C(=N/N=C3\CCCc4ccccc43)NC2=O)cc1 (centres undefined)	2.12%	0.103 µM [falling, full curve, poor fit]	–
C/C=C/c1ccc(OCCCCOc2ccccc2C(C)=O)c(OC)c1	-5.63%	0.517 µM [rising, single point]	–
Cc1ccc(S(=O)(=O)N2CCCCC2)cc1NC(=O)C1=NN(c2ccccc2)C(=O)CC1	4.03%	–	–
CCN(CC)C(=O)N1CCC(NC(=O)Cc2ccccc2)CC1	-26.4%	0.164 µM [falling, full curve, poor fit]	6.51 µM [falling, partial curve, poor fit]
COc1ccccc1NS(=O)(=O)c1cc(NC(=O)c2ccccc2F)ccc1N1CCOCC1	–	0.0058 µM [falling, full curve, poor fit]	–
Cc1nnc(SCC(=O)Nc2ncc3c(n2)CC(C)(C)CC3=O)s1	-14.3%	29.1 µM [rising, single point]	–
Cc1cccc(-n2c(SCC(=O)Nc3nnc(C)s3)nnc2-c2ccoc2C)c1	-7.67%	–	–
CCN(Cc1ccccc1)S(=O)(=O)c1ccc(C(=O)Nc2nnc(-c3ccccc3OC)o2)cc1	–	4.11 µM [falling, single point]	5.17 µM [falling, single point]
O=C(COc1ccccc1)OCc1cc2ccccc2[nH]c1=O	-1.48%	0.116 µM [falling, full curve]	–
CC(N=C1NS(=O)(=O)c2ccccc21)C(=O)OCC(=O)N(C)C1CCS(=O)(=O)C1 (centres undefined)	40.9%	14.6 µM [falling, partial curve]	32.6 µM [rising, single point]

Reformatted: results already given.
Compound | cell number change | AC50 [1] | AC50 [2]
COc1cccc(OCCOc2ccc(/C=C3/SC(=S)NC3=O)cc2)c1 | – | 2.91 µM [rising, single point] | –
CC(=O)c1ccc(S(=O)(=O)NCCC(=O)NC(C)c2ccncc2)cc1 (centres undefined) | 37.2% | 0.103 µM [rising, full curve, poor fit] | 2.91 µM [falling, single point]

The list continues:

Compound	cell number change	AC50 [1]	AC50 [2]
CCOc1ccc(NC(=O)CN(C)C(=O)CC2CCCCC2)cc1OCC	-5.18%	0.00461 µM [rising, full curve, poor fit]	–
COc1ccccc1OCC(=O)NNc1c2ccccc2nc2ccccc12	-72.9%	2.06 µM [falling, full curve]	3.26 µM [falling, partial curve]
O=C(O)c1ccc2c(=O)n3c(nc2c1)/C(=C/c1ccccc1Br)CC3	-20%	6.51 µM [rising, single point]	–
Cc1cccc(NC(=O)c2ccc(C3SCC(=O)N3CCc3ccccc3)cc2)c1 (centres undefined)	2.56%	20.6 µM [falling, single point]	–
CCNc1nc(NCC)n2c(SC(C(=O)Nc3cc(C)ccc3C)c3ccccc3)nnc2n1 (centres undefined)	–	1.84 µM [rising, full curve]	–
Cc1onc(-c2ccccc2Cl)c1C(=O)Nc1nnc(Cc2ccc(Cl)cc2)s1	2.67%	0.731 µM [falling, full curve, poor fit]	0.92 µM [falling, full curve, poor fit]
Cc1ccc(S(=O)(=O)N[C@H](C(=O)OCC(=O)N2N=C(c3ccc(Cl)cc3)CC2c2ccco2)C(C)C)cc1 (some centres undefined)	-20.3%	23.1 µM [falling, single point]	–
CCCCNC(=S)Nc1ccccc1Cc1ccccc1	16.2%	0.103 µM [rising, full curve, poor fit]	–
COc1ccc(NC(C)C(=O)Nc2ccc(C(C)(C)C)cc2)cc1Cl (centres undefined)	-6.04%	0.13 µM [falling, full curve, poor fit]	–
Cc1cc(NC(=O)CSc2n[nH]c(-c3cccs3)n2)no1	97.2%	3.26 µM [rising, full curve]	13 µM [rising, partial curve]
O=C(CN(c1ccc(Cl)c(C(F)(F)F)c1)S(=O)(=O)c1ccccc1)N1CCOCC1	-16.2%	–	–
Cc1nc2c(nnn2Cc2ccccc2Cl)c(=O)[nH]1	20.4%	–	1.16 µM [rising, full curve, poor fit]
COc1cc(Br)cc(C2C3=C(CCCC3=O)N(c3ccc(F)cc3)C3=C2C(=O)CCC3)c1O	-22.2%	25.9 µM [falling, single point]	–
C#CCOCCOCCOCCNc1nc(N2CCN(C(=O)CCCCCCCCCCNC(=O)[C@@H](CCSC)n3cc(CCO)nn3)CC2)nc(N2CCN(C(=O)CCCCCCCCCCNC(=O)[C@H](CO)n3cc(CCCCCN)nn3)CC2)n1	-64.4%	–	18.4 µM [falling, partial curve]
COc1ccc(-c2[nH]ncc2CN2CCCN(C(=O)c3ccco3)CC2)cc1F	26.1%	29.1 µM [rising, single point]	–
Cc1ccc(-c2cc(C(=O)Nc3cccc(S(=O)(=O)N(C)C)c3)c3ccccc3n2)o1	53.8%	6.51 µM [falling, single point]	13 µM [rising, partial curve]
CCc1nnc(NC(=O)C2CCCN(c3nc4ccccc4s3)C2)s1 (centres undefined)	-32.4%	29.1 µM [falling, single point]	10.3 µM [falling, partial curve]
CC(=O)Nc1ccc(NC(=O)C(C)c2cccc(C(=O)c3ccccc3)c2)cc1 (centres undefined)	24.6%	8.2 µM [rising, partial curve]	–
Cc1ccccc1NC(=O)COc1coc(CN2CCCc3ccccc32)cc1=O	-1.68%	–	–
Cc1[nH]n(-c2cccc([N+](=O)[O-])c2)c(=O)c1-c1ccccc1	-0.57%	–	–
Cc1ccc2c(c1)C(c1ccccc1)N(C(=O)c1c(F)cccc1Cl)CC(=O)N2 (centres undefined)	-18.5%	0.0082 µM [falling, full curve, poor fit]	–
CCSc1nnc(-c2cc(Br)ccc2N=Cc2c(C)[nH]n(-c3ccccc3)c2=O)c(=O)[nH]1	-29.4%	14.6 µM [falling, partial curve, poor fit]	–
COc1cc(OC)cc(C(=O)Nc2ncc3c(n2)CC(C)CC3=O)c1 (centres undefined)	-1.34%	5.8 µM [rising, full curve]	–
C#CCOCCOCCOCCNc1nc(N2CCN(C(=O)CCCCCCCCCCNC(=O)[C@@H](CCC(=O)O)n3cc(CCCCCN)nn3)CC2)nc(N2CCN(C(=O)CCCCCCCCCCNC(=O)[C@H](CCCCN)n3cc(C[C@@H](C)CC)nn3)CC2)n1	-32.3%	–	32.6 µM [falling, single point]
O=c1cc(CN2CCc3ccccc32)nc2sccn12	63.5%	0.58 µM [rising, single point]	29.1 µM [rising, single point]
COc1cc(C(=O)OC(C)C(=O)NC(=O)NC2CCCCC2)ccc1OC(F)F (centres undefined)	-8.95%	0.0058 µM [falling, full curve, poor fit]	–
CCOC(=O)c1cc(C)sc1/N=C/C1C(=O)CC(C)(C)CC1=O	2.57%	–	–

Entries from the list above with a Cl atom, in the order listed:
Compound	cell number change	AC50 [1]	AC50 [2]
CCN(CC)CCCNC(=O)c1nn2c(C(F)(F)F)cc(-c3ccccc3)nc2c1Cl	-5.07%	29.1 µM [falling, single point]	–
Cc1onc(-c2ccccc2Cl)c1C(=O)Nc1nnc(Cc2ccc(Cl)cc2)s1	2.67%	0.731 µM [falling, full curve, poor fit]	0.92 µM [falling, full curve, poor fit]
Cc1ccc(S(=O)(=O)N[C@H](C(=O)OCC(=O)N2N=C(c3ccc(Cl)cc3)CC2c2ccco2)C(C)C)cc1 (some centres undefined)	-20.3%	23.1 µM [falling, single point]	–
COc1ccc(NC(C)C(=O)Nc2ccc(C(C)(C)C)cc2)cc1Cl (centres undefined)	-6.04%	0.13 µM [falling, full curve, poor fit]	–
O=C(CN(c1ccc(Cl)c(C(F)(F)F)c1)S(=O)(=O)c1ccccc1)N1CCOCC1	-16.2%	–	–
Cc1nc2c(nnn2Cc2ccccc2Cl)c(=O)[nH]1	20.4%	–	1.16 µM [rising, full curve, poor fit]
Cc1ccc2c(c1)C(c1ccccc1)N(C(=O)c1c(F)cccc1Cl)CC(=O)N2 (centres undefined)	-18.5%	0.0082 µM [falling, full curve, poor fit]	–
